# Data reported in PubChem BioAssay AID1487 (National Center for Advancing Translational Sciences (NCATS), 2009).
# The list shows a part of the results. Shown are side measurements of this screen, not its main read-out; they come without a call. The list favours compounds with an active or inconclusive main result. Potencies come from curve fits of mixed quality, noted in brackets.
# Experiment: qHTS Assay for Modulators of Lamin A Splicing
# Conditions: HeLa LMNA splicing GFP/RFP minigene ratio, 48 h
# In short: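 Read-out is the ratio of GFP to DsRed2 object intensity, acquired by 488 nm laser-scanning cytometry on HeLa lamin A-EGFP minigene reporter cells. Compound incubation 48 hrs at 37 °C in Opti-MEM with 2% FBS; DMSO 0.5% final.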
# [1] = measured here: RFP viability control channel
# [2] = measured here: GFP splicing reporter channel
SMILES,AC50 [1],AC50 [2]
Cc1ccc2cccc(S(=O)(=O)N3CCN(c4ccccc4F)CC3)c2n1,"8.91 µM [rising, partial curve, poor fit]",
Cc1ccc(-c2nn3c(=O)cc(CN4CCN(C(=O)Nc5cccc(C(F)(F)F)c5)CC4)nc3s2)cc1,,"35.5 µM [rising, single point]"
COc1ccc(C(=O)Nc2ccc3cn[nH]c3c2)c(OC)c1,"0.631 µM [rising, partial curve]",
CCOC(=O)Cc1ccc(NC(=O)c2ccc([N+](=O)[O-])cc2)cc1,"3.16 µM [rising, full curve, poor fit]","3.55 µM [rising, partial curve]"
O=C(CN(c1ccc(F)cc1)S(=O)(=O)c1ccc2c(c1)OCCO2)NCc1ccncc1,"0.282 µM [falling, partial curve]",
COc1ccccc1NC(=O)Cc1csc(NC(=S)Nc2ccccc2)n1,"35.5 µM [rising, single point]",
Cc1ccc(OCC(=O)NC(C)c2ccccc2)c([N+](=O)[O-])n1 (stereo not drawn),,"35.5 µM [falling, partial curve, poor fit]"
CCn1c(SCC(=O)N/N=C/c2ccc(C)o2)nnc1-c1ccc(C(C)(C)C)cc1,"35.5 µM [rising, single point]","35.5 µM [rising, single point]"
COc1ccccc1-n1cnnc1SCC(=O)c1cc(C)n(Cc2cccs2)c1C,"10 µM [rising, partial curve]","8.91 µM [rising, partial curve]"
O=S(=O)(Nc1nc2ccccc2nc1-[n+]1ccccc1)c1ccc(Cl)cc1,"25.1 µM [rising, partial curve]",
CCOc1cc2[nH]c(=O)n(CCCCC(=O)N3CCN(c4ccccc4OC)CC3)c(=O)c2cc1OCC,"0.355 µM [falling, partial curve, poor fit]",
CCOC(=O)/C=C/COc1ccccc1[N+](=O)[O-],,"0.00398 µM [rising, full curve, poor fit]"
CCc1cccc(NC(=O)Cn2c(=O)n3nc(-c4cccc(F)c4)nc3c3ccccc32)c1,"28.2 µM [falling, partial curve]","5.62 µM [falling, partial curve, poor fit]"
COC(=O)c1sc(-c2ccccc2)cc1NC(C)=O,"10 µM [falling, partial curve, poor fit]",
CCN(CC)S(=O)(=O)c1ccc2oc(C(=O)NCc3ccc(F)cc3)c(C)c2c1,"11.2 µM [rising, single point]",
Cc1ccc(NC(=S)N2CCCC(c3nc4ccc(C)cc4[nH]3)C2)c(C)c1 (stereo not drawn),,"0.0112 µM [rising, partial curve]"
CCOC(=O)c1cc(-c2ccccc2)n(CCCC(=O)Nc2ccccc2C)c1C,"0.398 µM [falling, full curve, poor fit]",
CC1CC(C)CN(S(=O)(=O)c2ccc(C(=O)N3CCN(c4ccccc4)CC3)cc2)C1 (stereo not drawn),"22.4 µM [rising, partial curve]",
O=C(/C(=C\c1ccccc1)c1nc2ccccc2[nH]1)c1ccc(Cl)cc1,"35.5 µM [falling, single point]","35.5 µM [falling, single point]"

# 2 entries from above, with tabs.
SMILES	AC50 [1]	AC50 [2]
COc1ccccc1-n1cnnc1SCC(=O)c1cc(C)n(Cc2cccs2)c1C	10 µM [rising, partial curve]	8.91 µM [rising, partial curve]
O=S(=O)(Nc1nc2ccccc2nc1-[n+]1ccccc1)c1ccc(Cl)cc1	25.1 µM [rising, partial curve]	

# (continued)

SMILES,AC50 [1],AC50 [2]
O=C(Nc1ccc(-c2nc3ccccc3[nH]2)cc1)c1cccc(N2C(=O)CCC2=O)c1,"0.1 µM [rising, full curve, poor fit]",
Cc1ccc(CNC(=O)CC2C(=O)Nc3c2c(=O)n(C)c(=O)n3Cc2ccccc2)cc1 (stereo not drawn),"4.47 µM [falling, single point]",
CCc1ccc(NC(=O)CN2C(=O)c3ccccc3Sc3ccc(C(=O)N4CCCC4)cc32)cc1,"35.5 µM [falling, partial curve, poor fit]","35.5 µM [falling, partial curve, poor fit]"
Cc1ccc2nc(COc3cccc(NC(=O)c4ccccc4Cl)c3)cc(=O)n2c1,"0.794 µM [falling, full curve, poor fit]","7.08 µM [falling, partial curve]"
Cc1ccc(-c2nc(CCNC(=O)C(=O)Nc3c(C)cccc3C)cs2)cc1,,"0.126 µM [rising, partial curve, poor fit]"
CC(C)c1nnc(N2C(=O)C(O)=C(C(=O)c3cccs3)C2c2ccccc2)s1 (stereo not drawn),"7.08 µM [rising, partial curve, poor fit]",
Cc1ccc2c(c1)c1nc3ccccc3nc1n2CCN1CCOCC1,"2.82 µM [rising, full curve, poor fit]",
CN(C)CCNc1oc(COc2cccc(Cl)c2)nc1C#N,,"14.1 µM [rising, single point]"
COc1cc2[nH]c3c(N4CCN(c5ccccn5)CC4)ncnc3c2cc1OC,"7.08 µM [rising, partial curve]",
Cc1ccc(-c2nn(C)c(=O)c3ccccc23)cc1S(=O)(=O)N1CCCC1,"11.2 µM [rising, single point]",
CC(C)c1ccc(/C=C(/C#N)c2nnc(NC(=O)c3ccccc3)s2)cc1,"5.62 µM [rising, partial curve]","5.62 µM [rising, full curve]"
CCCN(CCC)C(=O)c1nn(C)c2c1CSc1ccc(C)cc1-2,,"2 µM [falling, single point]"
CC(C)Cc1nc(N2CCN(C(=O)c3ccco3)CC2)c(C#N)c2c1CCC2,"20 µM [rising, single point]","14.1 µM [rising, single point]"
O=C(Nc1ccc(Cl)c(Cl)c1)Nc1cc(S(=O)(=O)N2CCOCC2)ccc1N1CCCC1,"17.8 µM [rising, partial curve]",
COC(=O)c1cc(Sc2cccc(Cl)c2Cl)ccn1,,"20 µM [falling, single point]"
CCOc1ccccc1CNC(=O)c1nn(CC)cc1[N+](=O)[O-],,"35.5 µM [rising, single point]"
Cc1ccc(OCCCNCCO)c(Br)c1,"12.6 µM [rising, single point]",
COc1ccc(S(=O)(=O)Nc2ccc(NC(C)=O)cc2)cc1Br,"3.55 µM [rising, single point]",
CC(=O)Nc1nc(-c2ccc3c(c2)CCO3)cs1,"17.8 µM [falling, single point]",

# Copied from the list:
# Cc1ccc(CNC(=O)CC2C(=O)Nc3c2c(=O)n(C)c(=O)n3Cc2ccccc2)cc1 (stereo not drawn) – AC50 [1]: 4.47 µM [falling, single point]
# Cc1ccc(-c2nc(CCNC(=O)C(=O)Nc3c(C)cccc3C)cs2)cc1 – AC50 [2]: 0.126 µM [rising, partial curve, poor fit]
# O=C(Nc1ccc(Cl)c(Cl)c1)Nc1cc(S(=O)(=O)N2CCOCC2)ccc1N1CCCC1 – AC50 [1]: 17.8 µM [rising, partial curve]

# The list continues.

SMILES,AC50 [1],AC50 [2]
CCOC(=O)N1CCN(CC(=O)Nc2c(C(=O)OC)[nH]c3ccc(Cl)cc23)CC1,"15.8 µM [rising, partial curve]",
Cc1noc(C)c1COC(=O)c1cc2c3ccccc3n(C)c2s1,"15.8 µM [rising, single point]",
Cc1ccc(NC(=S)N(CCN2CCCCC2)Cc2ccco2)cc1C,,"35.5 µM [falling, single point]"
COc1ccc(C)cc1NC(=O)c1oc2ccc(S(=O)(=O)N3CCC4(CC3)OCCO4)cc2c1C,"0.447 µM [falling, full curve, poor fit]",
CCN(C(=O)COC(=O)c1c2c(nc3ccccc13)/C(=C/c1ccccc1)CC(C)C2)C1CCS(=O)(=O)C1 (stereo not drawn),"22.4 µM [falling, single point]","35.5 µM [falling, single point]"
CC(=O)Nc1ccc(NC(=O)CSc2nccn2Cc2ccccc2)cc1,"20 µM [rising, single point]",
CC(N)C12CC3CC(CC(C3)C1)C2 (stereo not drawn),,"0.0891 µM [rising, full curve, poor fit]"
O=C(Nc1cccnc1)c1ccccc1NS(=O)(=O)c1ccc(F)cc1,,"2 µM [falling, partial curve, poor fit]"
CCCCc1ccc2nc(NC(=O)OC)[nH]c2c1,"0.112 µM [falling, full curve]","0.112 µM [falling, full curve]"
O=C(Nc1ccccc1N1CCCC1)c1cccc(-c2cc3ccccc3oc2=O)c1,"15.8 µM [rising, partial curve]","7.94 µM [rising, partial curve, poor fit]"
COc1ccc(/C=C/C(=O)NC(=S)NNC(=O)Cc2cccs2)cc1,"1.26 µM [falling, partial curve]","1.26 µM [falling, partial curve]"
O=C(/C=C/NNC(=O)c1cccc(Br)c1)c1cccc(Br)c1,"22.4 µM [rising, single point]",
Cc1ccc2oc(-c3ccco3)cc(=O)c2c1,,"5.62 µM [rising, single point]"
Cc1ccc(C(=O)N2CCCC(C(=O)c3cc(F)ccc3F)C2)s1 (stereo not drawn),"28.2 µM [falling, single point]",
COc1ccc(S(=O)(=O)N2CCOCC2)cc1NC(=O)CN1CCC(Cc2ccccc2)CC1,"14.1 µM [rising, partial curve]","11.2 µM [rising, single point]"
COc1ccc(C(=O)Nc2ccc(Cc3ccncc3)cc2)cc1Br,"12.6 µM [rising, single point]","35.5 µM [rising, single point]"
Cc1ccc(-c2nn(-c3ccccc3)cc2NC(=O)c2ccccc2)cc1,"31.6 µM [rising, single point]","31.6 µM [rising, single point]"
O=C(NNC(=S)NCc1ccccc1)c1ccc(OC(F)F)cc1,"35.5 µM [rising, single point]","14.1 µM [rising, single point]"
